Over roughly 33,000 sequences, “E-score (-0.5 to 0.5)” has its median near -0.016; the highest 2% begin near 0.3. Some of the results follow.
Each sequence was assayed against T1, Yer184c (UniProt P39961) (assay: PBM E-score (8-mer binding enrichment) (E-score (-0.5 to 0.5)); higher = stronger / more preferred TF binding). Details: protein concentration: 100 nM; construct: GST-full length.
T1 sequence: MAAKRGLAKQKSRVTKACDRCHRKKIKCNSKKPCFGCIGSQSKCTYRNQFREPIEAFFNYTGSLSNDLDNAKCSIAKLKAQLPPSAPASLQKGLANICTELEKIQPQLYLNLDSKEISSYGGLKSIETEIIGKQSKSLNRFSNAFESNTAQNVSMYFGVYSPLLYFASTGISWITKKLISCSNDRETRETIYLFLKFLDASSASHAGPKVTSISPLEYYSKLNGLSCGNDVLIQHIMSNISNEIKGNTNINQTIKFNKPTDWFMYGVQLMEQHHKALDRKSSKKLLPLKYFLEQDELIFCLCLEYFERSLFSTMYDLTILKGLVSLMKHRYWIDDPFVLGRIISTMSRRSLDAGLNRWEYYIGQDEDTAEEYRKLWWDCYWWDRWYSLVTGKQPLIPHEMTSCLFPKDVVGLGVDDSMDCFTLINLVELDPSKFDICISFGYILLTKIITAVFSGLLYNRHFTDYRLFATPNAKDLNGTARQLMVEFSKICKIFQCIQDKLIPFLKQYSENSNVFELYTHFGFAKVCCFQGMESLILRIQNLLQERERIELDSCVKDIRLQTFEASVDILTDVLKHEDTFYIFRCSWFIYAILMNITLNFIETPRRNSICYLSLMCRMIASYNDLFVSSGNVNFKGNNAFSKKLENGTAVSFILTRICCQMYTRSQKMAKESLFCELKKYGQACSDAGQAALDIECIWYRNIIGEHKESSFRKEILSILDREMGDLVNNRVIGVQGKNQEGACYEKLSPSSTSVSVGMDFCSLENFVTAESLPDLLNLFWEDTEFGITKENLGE
Method in brief: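 Detection of bound protein used fluorescent anti-GST, with scans normalised by masliner. The proteins were GST-tagged yeast transcription factors applied at about 100-200 nM to universal all-10-mer Agilent arrays made double-stranded by primer extension. Each ungapped eight-base word, pooled with its reverse complement, was scored with an E-score from the Universal PBM Analysis Suite.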
For TGCCCCCA, the “PBM E-score” value was -0.41.
With CCAGTTGC the “PBM E-score” value was -0.131.
In the case of ATCATTAA, the “PBM E-score” value was 0.307.
With ACAGCGAA the “PBM E-score” value was 0.117.
With TGAGAGCA the “PBM E-score” value was -0.0441.
In the case of ACCGTTCG, the “PBM E-score” value was 0.0905.
In the case of CATCAGCA, the “PBM E-score” value was -0.123.
In the case of CGTGGCTA, the “PBM E-score” value was -0.18.
With GATCCATC the “PBM E-score” value was -0.00243.
In the case of CATTGGGA, the “PBM E-score” value was -0.157.
For AATCAATA, the “PBM E-score” value was 0.237.
With ACGAAGAC the “PBM E-score” value was -0.219.
With CGCTCTGA the “PBM E-score” value was -0.0592.
CCCCGGTC was tested, and the “PBM E-score” value was -0.0178.
With CCTTCGAC the “PBM E-score” value was -0.158.
For GATCTCTA, the “PBM E-score” value was -0.0569.
ACTTAACG was tested, and the “PBM E-score” value was -0.204.
In the case of CACGCTGC, the “PBM E-score” value was -0.212.
CAAGAGGC was tested, and the “PBM E-score” value was -0.146.
In the case of AGGTCCAC, the “PBM E-score” value was -0.141.
In the case of AAAGCGGT, the “PBM E-score” value was -0.0566.
In the case of ATGTTCGC, the “PBM E-score” value was -0.144.
For CAGTGTTC, the “PBM E-score” value was 0.147.
In the case of AAATCTGT, the “PBM E-score” value was -0.0223.
In the case of AAAATAGT, the “PBM E-score” value was 0.073.
CCACTGCG was tested, and the “PBM E-score” value was -0.00892.
With ATCTCGTC the “PBM E-score” value was 0.147.
In the case of AGCCCAAG, the “PBM E-score” value was -0.228.
In the case of GAGCGGCC, the “PBM E-score” value was 0.0204.
In the case of ACAAGCGA, the “PBM E-score” value was -0.015.
For CCTGATAC, the “PBM E-score” value was 0.041.
CGCCTTTA was tested, and the “PBM E-score” value was -0.078.
CAATTATA was tested, and the “PBM E-score” value was 0.209.
For CGGTAGTA, the “PBM E-score” value was 0.0519.
With CCAGTCTA the “PBM E-score” value was -0.0793.
In the case of GCTTGTGA, the “PBM E-score” value was -0.257.
GCTGCCTA was tested, and the “PBM E-score” value was -0.0537.
With ACGGGTGC the “PBM E-score” value was -0.0553.
For AAATCTAC, the “PBM E-score” value was 0.138.
With ACCTGTCA the “PBM E-score” value was -0.0979.
In the case of CACCTATG, the “PBM E-score” value was -0.284.
For GCGTGCTA, the “PBM E-score” value was -0.328.
ATAGATGG was tested, and the “PBM E-score” value was -0.223.
In the case of CTGCTCTA, the “PBM E-score” value was -0.105.
For CATGTTCC, the “PBM E-score” value was -0.0899.
With ACACCTAG the “PBM E-score” value was -0.287.
For CGGCACGA, the “PBM E-score” value was 0.207.
GATCTACA was tested, and the “PBM E-score” value was 0.177.
For ACAGACCT, the “PBM E-score” value was 0.0177.
For ACGGTTGA, the “PBM E-score” value was -0.0221.
AGTACCCG was tested, and the “PBM E-score” value was 0.122.
For AAAATTCA, the “PBM E-score” value was 0.277.
For CAAAGGTC, the “PBM E-score” value was -0.123.
For AATCGGAT, the “PBM E-score” value was 0.327.
With CCAGTCGA the “PBM E-score” value was -0.0181.
In the case of GGGAACGA, the “PBM E-score” value was -0.198.
For AGTCTTCG, the “PBM E-score” value was 0.0497.
CCCTGTCA was tested, and the “PBM E-score” value was -0.279.
With GGTTGTTA the “PBM E-score” value was 0.108.
For CGAACCAG, the “PBM E-score” value was 0.238.
In the case of AATGCAAT, the “PBM E-score” value was -0.256.
With AGGGCAGA the “PBM E-score” value was -0.295.
In the case of ACCCTGGA, the “PBM E-score” value was -0.382.
In the case of TCTACCAA, the “PBM E-score” value was -0.133.
For ATCGAGCG, the “PBM E-score” value was 0.0386.
In the case of CCCACAAA, the “PBM E-score” value was 0.136.
In the case of CTTACGGA, the “PBM E-score” value was 0.0868.
With CGGAGAAG the “PBM E-score” value was 0.106.
With AAATAGTG the “PBM E-score” value was 0.21.
For AGTAAGAT, the “PBM E-score” value was 0.014.
For AACTCTCA, the “PBM E-score” value was 0.0144.
CTCCTGGC was tested, and the “PBM E-score” value was -0.118.
With GACTGGAA the “PBM E-score” value was -0.0358.
With CAGTGGGA the “PBM E-score” value was -0.199.
CATCAAAC was tested, and the “PBM E-score” value was -0.0426.
For GGGTTGGA, the “PBM E-score” value was -0.00521.
For ACGCCCAA, the “PBM E-score” value was -0.14.
For CGGCTGGA, the “PBM E-score” value was 0.0802.
In the case of AGTAATAC, the “PBM E-score” value was 0.106.
For AAAGTAAC, the “PBM E-score” value was 0.0507.
With ACCTCTAG the “PBM E-score” value was -0.176.
For AGTGAATA, the “PBM E-score” value was 0.0757.
For GGCGCAAC, the “PBM E-score” value was 0.0406.
AGGCGCCC was tested, and the “PBM E-score” value was -0.22.
In the case of CGACAGTA, the “PBM E-score” value was -0.109.
In the case of AACACACC, the “PBM E-score” value was 0.105.

— the supplement of paper PMC3334620
